This note sets out measurements from the supplement of paper PMC8728848.

Assay in all cases: glycan array binding signal (z-score within array); higher = stronger binding
What all share (details): glycan notation: IUPAC condensed, linker removed

The target in experiment [1] is Gal(b1-4)GlcNAc(b1-2)[Gal(b1-4)GlcNAc(b1-6)]Man(a1-6)[GlcNAc(b1-4)][Gal(b1-4)GlcNAc(b1-2)Man(a1-3)]Man(b1-4)GlcNAc(b1-4)GlcNAc. A digest of the protocol: (§1)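 The Consortium for Functional Glycomics database supplied 3228 glycan arrays, of which those lacking an available protein sequence were dropped. The binding signal, a within-array Z-score, was averaged across arrays of the same protein sequence and across linkers. Negative scores can be read as non-binding.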

Experiment [2] deals with Gal(b1-4)GlcNAc(b1-2)[Gal(b1-4)GlcNAc(b1-6)]Man(a1-6)[GlcNAc(b1-4)][Gal(b1-4)GlcNAc(b1-2)[Gal(b1-4)GlcNAc(b1-4)]Man(a1-3)]Man(b1-4)GlcNAc(b1-4)[Fuc(a1-6)]GlcNAc. A digest of the protocol: as §1
Experiment [3] addresses Gal(b1-4)GlcNAc(b1-3)Gal(b1-3)GalNAc. A digest of the protocol:
as §1

Experiment [4] has as its target Gal(b1-4)GlcNAc(b1-3)Gal(b1-3)GlcNAc. A digest of the protocol:
as §1

For experiment [5], the target named is Gal(b1-4)GlcNAc(b1-3)Gal(b1-4)Glc. In short, it runs like this:
as §1

The target in experiment [6] is Gal(b1-4)GlcNAc(b1-3)Gal(b1-4)GlcNAc. In short, it runs like this: as §1
In experiment [7] the target is Gal(b1-4)GlcNAc(b1-3)Gal(b1-4)GlcNAc(b1-2)Man(a1-3)[Gal(b1-4)GlcNAc(b1-3)Gal(b1-4)GlcNAc(b1-2)Man(a1-6)]Man(b1-4)GlcNAc(b1-4)GlcNAc. In short, it runs like this: as §1
Experiment [8] has as its target Gal(b1-4)GlcNAc(b1-3)Gal(b1-4)GlcNAc(b1-2)Man(a1-3)[Gal(b1-4)GlcNAc(b1-3)Gal(b1-4)GlcNAc(b1-2)Man(a1-6)]Man(b1-4)GlcNAc(b1-4)[Fuc(a1-6)]GlcNAc. In short, it runs like this: as §1
The target of experiment [9] is Gal(b1-4)GlcNAc(b1-3)Gal(b1-4)GlcNAc(b1-2)[Gal(b1-4)GlcNAc(b1-3)Gal(b1-4)GlcNAc(b1-6)]Man(a1-6)[Gal(b1-4)GlcNAc(b1-3)Gal(b1-4)GlcNAc(b1-2)Man(a1-3)]Man(b1-4)GlcNAc(b1-4)GlcNAc. In short, it runs like this:
as §1

In experiment [10] the target is Gal(b1-4)GlcNAc(b1-3)Gal(b1-4)GlcNAc(b1-2)[Gal(b1-4)GlcNAc(b1-3)Gal(b1-4)GlcNAc(b1-6)]Man(a1-6)[Gal(b1-4)GlcNAc(b1-3)Gal(b1-4)GlcNAc(b1-2)Man(a1-3)]Man(b1-4)GlcNAc(b1-4)[Fuc(a1-6)]GlcNAc. In short, it runs like this: as §1
The target in experiment [11] is Gal(b1-4)GlcNAc(b1-3)Gal(b1-4)GlcNAc(b1-3)Gal(b1-4)GlcNAc. In short, it runs like this:
as §1

The target of experiment [12] is Gal(b1-4)GlcNAc(b1-3)Gal(b1-4)GlcNAc(b1-3)Gal(b1-4)GlcNAc(b1-2)Man(a1-3)[Gal(b1-4)GlcNAc(b1-3)Gal(b1-4)GlcNAc(b1-3)Gal(b1-4)GlcNAc(b1-2)Man(a1-6)]Man(b1-4)GlcNAc(b1-4)GlcNAc. A digest of the protocol:
as §1

Experiment [13] has as its target Gal(b1-4)GlcNAc(b1-3)Gal(b1-4)GlcNAc(b1-3)Gal(b1-4)GlcNAc(b1-2)Man(a1-3)[Gal(b1-4)GlcNAc(b1-3)Gal(b1-4)GlcNAc(b1-3)Gal(b1-4)GlcNAc(b1-2)Man(a1-6)]Man(b1-4)GlcNAc(b1-4)[Fuc(a1-6)]GlcNAc. A digest of the protocol:
as §1

Experiment [14] has as its target Gal(b1-4)GlcNAc(b1-3)Gal(b1-4)GlcNAc(b1-3)Gal(b1-4)GlcNAc(b1-2)[Gal(b1-4)GlcNAc(b1-3)Gal(b1-4)GlcNAc(b1-3)Gal(b1-4)GlcNAc(b1-6)]Man(a1-6)[Gal(b1-4)GlcNAc(b1-3)Gal(b1-4)GlcNAc(b1-3)Gal(b1-4)GlcNAc(b1-2)Man(a1-3)]Man(b1-4)GlcNAc(b1-4)[Fuc(a1-6)]GlcNAc. A digest of the protocol:
as §1

Experiment [15] concerns the target Gal(b1-4)GlcNAc(b1-3)Gal(b1-4)GlcNAc(b1-3)Gal(b1-4)GlcNAc(b1-3)Gal(b1-4)GlcNAc(b1-2)Man(a1-3)[Gal(b1-4)GlcNAc(b1-3)Gal(b1-4)GlcNAc(b1-3)Gal(b1-4)GlcNAc(b1-3)Gal(b1-4)GlcNAc(b1-2)Man(a1-6)]Man(b1-4)GlcNAc(b1-4)GlcNAc. A digest of the protocol:
as §1

Experiment [16] has as its target Gal(b1-4)GlcNAc(b1-3)Gal(b1-4)GlcNAc(b1-3)Gal(b1-4)GlcNAc(b1-3)Gal(b1-4)GlcNAc(b1-2)Man(a1-3)[Gal(b1-4)GlcNAc(b1-3)Gal(b1-4)GlcNAc(b1-3)Gal(b1-4)GlcNAc(b1-3)Gal(b1-4)GlcNAc(b1-2)Man(a1-6)]Man(b1-4)GlcNAc(b1-4)[Fuc(a1-6)]GlcNAc. In short, it runs like this: as §1
Experiment [17] concerns the target Gal(b1-4)GlcNAc(b1-3)Gal(b1-4)GlcNAc(b1-3)Gal(b1-4)GlcNAc(b1-3)Gal(b1-4)GlcNAc(b1-2)[Gal(b1-4)GlcNAc(b1-3)Gal(b1-4)GlcNAc(b1-3)Gal(b1-4)GlcNAc(b1-3)Gal(b1-4)GlcNAc(b1-6)]Man(a1-6)[Gal(b1-4)GlcNAc(b1-3)Gal(b1-4)GlcNAc(b1-3)Gal(b1-4)GlcNAc(b1-3)Gal(b1-4)GlcNAc(b1-2)Man(a1-3)]Man(b1-4)GlcNAc(b1-4)[Fuc(a1-6)]GlcNAc. In short, it runs like this: as §1
For experiment [18], the target named is Gal(b1-4)GlcNAc(b1-3)Gal(b1-4)GlcNAc(b1-3)Gal(b1-4)GlcNAc(b1-3)Gal(b1-4)GlcNAc(b1-3)Gal(b1-4)GlcNAc(b1-2)Man(a1-3)[Gal(b1-4)GlcNAc(b1-3)Gal(b1-4)GlcNAc(b1-3)Gal(b1-4)GlcNAc(b1-3)Gal(b1-4)GlcNAc(b1-3)Gal(b1-4)GlcNAc(b1-2)Man(a1-6)]Man(b1-4)GlcNAc(b1-4)GlcNAc. In short, it runs like this:
as §1

The target of experiment [19] is Gal(b1-4)GlcNAc(b1-3)Gal(b1-4)GlcNAc(b1-3)Gal(b1-4)GlcNAc(b1-3)Gal(b1-4)GlcNAc(b1-3)Gal(b1-4)GlcNAc(b1-2)Man(a1-3)[Gal(b1-4)GlcNAc(b1-3)Gal(b1-4)GlcNAc(b1-3)Gal(b1-4)GlcNAc(b1-3)Gal(b1-4)GlcNAc(b1-3)Gal(b1-4)GlcNAc(b1-2)Man(a1-6)]Man(b1-4)GlcNAc(b1-4)[Fuc(a1-6)]GlcNAc. A digest of the protocol: as §1
Experiment [20] has as its target Gal(b1-4)GlcNAc(b1-3)Gal(b1-4)GlcNAc(b1-3)Gal(b1-4)GlcNAc(b1-3)Gal(b1-4)GlcNAc(b1-3)Gal(b1-4)GlcNAc(b1-2)[Gal(b1-4)GlcNAc(b1-3)Gal(b1-4)GlcNAc(b1-3)Gal(b1-4)GlcNAc(b1-3)Gal(b1-4)GlcNAc(b1-3)Gal(b1-4)GlcNAc(b1-6)]Man(a1-6)[Gal(b1-4)GlcNAc(b1-3)Gal(b1-4)GlcNAc(b1-3)Gal(b1-4)GlcNAc(b1-3)Gal(b1-4)GlcNAc(b1-3)Gal(b1-4)GlcNAc(b1-2)Man(a1-3)]Man(b1-4)GlcNAc(b1-4)[Fuc(a1-6)]GlcNAc. In short, it runs like this: as §1

Experiment [21] concerns the target Gal(b1-4)GlcNAc(b1-3)Gal(b1-4)GlcNAc(b1-3)Gal(b1-4)GlcNAc(b1-3)Gal(b1-4)GlcNAc(b1-3)Gal(b1-4)GlcNAc(b1-3)Gal(b1-4)GlcNAc(b1-2)Man(a1-3)[Gal(b1-4)GlcNAc(b1-3)Gal(b1-4)GlcNAc(b1-3)Gal(b1-4)GlcNAc(b1-3)Gal(b1-4)GlcNAc(b1-3)Gal(b1-4)GlcNAc(b1-3)Gal(b1-4)GlcNAc(b1-2)Man(a1-6)]Man(b1-4)GlcNAc(b1-4)GlcNAc. A digest of the protocol:
as §1

Experiment [22] has as its target Gal(b1-4)GlcNAc(b1-3)Gal(b1-4)GlcNAc(b1-3)GalNAc. A digest of the protocol:
as §1

For experiment [23], the target named is Gal(b1-4)GlcNAc(b1-3)Gal(b1-4)GlcNAc(b1-3)[Gal(b1-4)GlcNAc(b1-3)Gal(b1-4)GlcNAc(b1-6)]GalNAc. In short, it runs like this: as §1

The list shows a part of the results.

B1: SspB A3vp1 (Streptococcus gordonii), Q54186 (protein)
chain: MTNEADYQAKLAAYQTELARVQKANADAKATYEKAVEDNKAKNAAIKAENEEIKQRNAVAKTDYEAKLAKYEADLAKYKKEFAAYTAALAEAESKKKQDGYLSEPRSQSLNFKSEPNAIRTIDSSVHQYGQQELDALVKSWGISPTNPDRKKSRAYSYFNAINSNNTYAKLVLEKDKPVDVTYTGLKNSSFNGKKISKVVYTYTLKETGFNDGTKMTMFASSDPTVTAWYNDYFTSTNINVKVKFYDEEGQLMNLTGGLVNFSSLNRGNGSGAIDKDAIESVRNFNGRYIPISGSSIKIHENNSAYADSSNAEKSLGARWNTSEWDTTSSPNNWYGAIVGEITQSEISFNMASSKSGNIWFAFNSNINAIGVPTKPVAPTAPTQPMYETEKPLEPAPVAPSYENEPTPPVKTPDQPEPSKPAAALEHHHHHH
B1: the “glycan array binding signal (z-score)” value in [1] is 0.194; in experiment [2] it was -0.766; in [3] it was 0.021; in experiment [4], -0.837; in experiment [5], -0.159; in [6], 0.287. Besides, the “glycan array binding signal (z-score)” value stood at 1.65 in experiment [7]; 0.965 in experiment [8]; 3.16 in experiment [9]; 3.01 in experiment [10]; 0.261 in experiment [11]; 2.06 in [12]. Besides, the “glycan array binding signal (z-score)” value in experiment [13] came out at 3.73; in experiment [14], 2.45; in experiment [15], 3.61; in experiment [16], 2.13; in experiment [17], 2.31; in [18], 3.36. Further, the “glycan array binding signal (z-score)” value is 3.38 in [19]; 2 in experiment [20]; 1.69 in experiment [21]; 0.825 in experiment [22]; 1.46 in experiment [23].
